The list shows a part of the results. These are further read-outs of the screen, such as a control signal, another cell line or another target. No call is given for them. Compounds called inactive in the main read-out are mostly missing here. Potencies come from curve fits of mixed quality, noted in brackets.
Test: qHTS Assay for Lipid Storage Modulators in Drosophila S3 Cells;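 on cell number change: cells counted by Cell Tracker Red CMTPX staining in the red channel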
Details: BODIPY lipid droplet fluorescence, 18-24 h; for cell number change: measured here: cell count max response, cells fed with added oleic acid
Method in brief: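 Drosophila S3 cells loaded with oleic acid (400 uM, as added) and compounds at several concentrations; lipid droplets imaged by 488-nm laser-scanning cytometry, 500–530 nm intensity and object ratio to cell channel. Percent activity normalized to 20 uM Triacsin C.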

[1] = measured here: lipid fluorescence (Fed channel) AC50, cells fed with added oleic acid
[2] = measured here: cell number channel AC50, cells fed with added oleic acid

| Compound | cell number change | AC50 [1] | AC50 [2] |
| --- | --- | --- | --- |
| COc1ccc(N(CC(=O)NC2CCCCC2)C(=O)c2snc(C(N)=O)c2N)cc1 | 12.6% | 6.51 µM [rising, single point] | – |
| COc1cc(S(=O)(=O)N2CCOCC2)cc(C(=O)c2nccn2C)c1OC | -10% | 2.31 µM [falling, partial curve, poor fit] | – |
| CCC1CCCCN1S(=O)(=O)c1ccc2c(c1)CCN2C(C)=O (stereo not drawn) | 8.87% | – | – |
| C=CCC(=O)N1CCCC(CO)(Cc2ccc(F)cc2F)C1 (stereo not drawn) | 3.81% | – | – |
| Cc1ccc(-n2c(C)nnc2SC(C)C(=O)N2CCCC2)cc1 (stereo not drawn) | 10.5% | – | – |
| COc1cccc(/C=C/C(=O)Nc2ccc3c(c2)OCCO3)c1OC | 5.86% | – | – |
| CCC(CC)NC(=O)CON=C1c2ccccc2-c2ccccc21 | -19.5% | 16.4 µM [falling, single point] | – |
| O=C1OC(/C=C/c2ccccc2)=NC/1=C/C=C/c1ccccc1 | 18.1% | 0.092 µM [falling, single point] | 0.116 µM [falling, full curve, poor fit] |
| Cc1nc2nc(N)nn2c(C)c1C/C=C/c1ccccc1 | 39.5% | – | 3.66 µM [rising, full curve, poor fit] |
| Cc1ccc(C(=O)N2CCN(c3ccc(C(F)(F)F)cn3)CC2)c(C)c1 | -7.46% | – | – |
| O=C(CNC(=O)c1ccccc1)N=Nc1c(O)[nH]c2ccc(Br)cc12 | 31.2% | – | 25.9 µM [rising, single point] |
| O=c1[nH]c2ccc(Cl)cc2c(-c2ccccc2)c1CN1CCOCC1 | -31.5% | – | 14.6 µM [falling, single point] |
| COc1cc(C(=O)NCCSc2ccc(Br)cc2)cc(OC)c1OC | 35.3% | – | 0.461 µM [rising, full curve, poor fit] |
| Cc1ccccc1N=CC1=C(O)c2ccccc2C1=O | – | – | 6.51 µM [falling, single point] |
| COc1ccc(NC(=O)Nc2ccc(N3CCOCC3)c3nonc23)c(OC)c1 | -38.9% | 16.4 µM [falling, single point] | 20.6 µM [falling, single point] |
| COc1ccc(C2c3c(c(C)c(C)oc3=O)Oc3c(C)c(C)oc(=O)c32)cc1 | 6.63% | 6.51 µM [rising, full curve, poor fit] | – |
| Cc1ccc(SCC(=O)N2N=CCC2c2ccccc2)cc1 (stereo not drawn) | -30.9% | – | – |
| O=C(O)c1cccc(N2CCCCS2(=O)=O)c1 | -16.8% | 0.259 µM [falling, full curve] | – |
| CC(C)(C)OC(=O)CNC(=O)c1nc[nH]c1C(=O)NCc1ccccc1 | 2.4% | 32.6 µM [falling, single point] | – |
| CC1(C)CC(=O)C2=C(C1)N(N1CCOCC1)C(N)=C(C#N)C2c1cccnc1 (stereo not drawn) | 27.4% | – | – |
| CC1CC(C)CN(C(=O)CCC(=O)Nc2nnc(C(C)C)s2)C1 (stereo not drawn) | – | 6.51 µM [rising, single point] | – |

Entries from the list above containing an NH in an aromatic ring (three):

| Compound | cell number change | AC50 [1] | AC50 [2] |
| --- | --- | --- | --- |
| O=C(CNC(=O)c1ccccc1)N=Nc1c(O)[nH]c2ccc(Br)cc12 | 31.2% | – | 25.9 µM [rising, single point] |
| O=c1[nH]c2ccc(Cl)cc2c(-c2ccccc2)c1CN1CCOCC1 | -31.5% | – | 14.6 µM [falling, single point] |
| CC(C)(C)OC(=O)CNC(=O)c1nc[nH]c1C(=O)NCc1ccccc1 | 2.4% | 32.6 µM [falling, single point] | – |

Additional results follow.

| Compound | cell number change | AC50 [1] | AC50 [2] |
| --- | --- | --- | --- |
| CC1(C(=O)N(CC(=O)NC2CCCC2)Cc2ccco2)CC(=O)N=C2C=CC=CN21 (stereo not drawn) | -18.5% | 4.11 µM [falling, full curve, poor fit] | – |
| Nc1ccc2nc(N3CCOCC3)sc2c1 | 62.8% | – | 14.6 µM [rising, partial curve, poor fit] |
| C/C(=N/NC(=O)c1ccc(-c2ccccc2)cc1)c1cc(O)cc(O)c1 | -13.9% | 1.16 µM [falling, full curve, poor fit] | – |
| O=C(/C=C/c1ccccc1)Nc1ccc(C(=O)N2CCCCC2)cc1 | -21.3% | 29.1 µM [falling, single point] | – |
| O=c1c(-c2ccc(Cl)cc2)[n+]([O-])c2ccccc2n1O | – | – | 3.66 µM [falling, single point] |
| Cc1ccc(C(=O)Nc2nc(C)c(C(=O)Nc3ccc4c(c3)CCC4)s2)cc1 | 11.7% | 0.291 µM [rising, full curve, poor fit] | – |
| CCCN(CCC)CCNC(=O)c1cn(C)c(=O)c2c1c1ccccc1n2C | 4.17% | 3.26 µM [falling, full curve] | – |
| O=C(Cn1nc(Cc2cccnc2)c2ccccc2c1=O)Nc1ccc2c(c1)OCO2 | – | 0.517 µM [rising, single point] | – |
| O=C1CN(C(=O)COC(=O)c2cccnc2Cl)c2ccccc2N1 | 31.9% | 6.51 µM [falling, single point] | – |
| C1CCCN(c2nc3nonc3nc2N2CCCCCC2)CC1 | -1.76% | – | 0.116 µM [falling, full curve, poor fit] |
| CC(C)CCOc1ccc(C(=O)C[N+]2(C)CCOCC2)cc1 | -1.32% | 2.91 µM [falling, partial curve] | – |
| CC(=O)Nc1cccc(C(=O)NNC(=O)c2ccccc2-n2cccc2)c1 | 32.9% | 18.4 µM [rising, partial curve, poor fit] | 20.6 µM [rising, single point] |
| Cc1cc(C)nc(N/N=C/c2cccc(Cl)c2)n1 | 29% | – | 0.92 µM [rising, full curve, poor fit] |
| O=C(Cn1cnc2ccccc21)Nc1ccc2c(c1)OCCCO2 | -16.8% | 4.61 µM [falling, full curve] | – |
| Cn1cc(SCC(=O)N2CCN(c3ccccc3)CC2)c2ccccc21 | 4.82% | 1.3 µM [rising, full curve] | – |
| COc1ccc(OCCSc2nc3nc(C)cc(C)n3n2)cc1 | – | – | 6.51 µM [rising, single point] |
| Cc1ccc(CC(=O)N2CCN(c3cccc(C(F)(F)F)c3)CC2)cc1 | -6.75% | 0.58 µM [rising, single point] | – |
| O=C(N/N=C/c1cccnc1)c1cc(-c2ccccc2OCc2ccccc2)n[nH]1 | -30.3% | 29.1 µM [falling, single point] | 29.1 µM [falling, single point] |
| CN1CCCN=C1COC(=O)C(O)(c1ccccc1)C1CCCCC1 (stereo not drawn) | 2.79% | 6.51 µM [rising, single point] | – |
| O=C(COC(=O)c1cc(S(=O)(=O)N2CCCCC2)ccc1Cl)NCc1ccco1 | -37.8% | – | 29.1 µM [falling, single point] |
| COCCNC(=O)[C@@H]1CCCN1C(=O)C1CCN(S(=O)(=O)c2ccc(C)cc2)CC1 | -1.65% | 0.00517 µM [falling, full curve, poor fit] | – |

As entered above.
cell number change, O=C1CN(C(=O)COC(=O)c2cccnc2Cl)c2ccccc2N1 reads 31.9%
AC50 [2], Nc1ccc2nc(N3CCOCC3)sc2c1 reads 14.6 µM [rising, partial curve, poor fit]
AC50 [1], CN1CCCN=C1COC(=O)C(O)(c1ccccc1)C1CCCCC1 (stereo not drawn) reads 6.51 µM [rising, single point]

Further compounds:

| Compound | cell number change | AC50 [1] | AC50 [2] |
| --- | --- | --- | --- |
| CCCC(=O)N1CCc2cc(-c3nc(N)sc3C)ccc21 | -28.4% | 0.651 µM [falling, single point] | 0.731 µM [falling, full curve, poor fit] |
| COc1ccc(Cn2c(-c3ccc(C)cc3)nc3c(c(=O)c4ccccc4n3C)c2=O)cc1 | 16% | 3.26 µM [falling, single point] | – |
| CN1CCc2ccccc2C1C1CCNCC1 (stereo not drawn) | -43.4% | 4.61 µM [falling, full curve, poor fit] | 11.6 µM [falling, partial curve] |
| N#CCC(=O)N/N=C/c1c(-c2ccccc2)n(-c2ccccc2)c2ccccc12 | 46.6% | – | 16.4 µM [rising, partial curve] |
| COc1ccccc1NS(=O)(=O)c1cc(NC(=O)c2cccs2)ccc1N1CCCCC1 | -63% | – | 25.9 µM [falling, partial curve, poor fit] |
| CCOC(=O)C(Sc1nnc2c3ccccc3n(CC)c2n1)C(=O)OCC | – | – | 1.3 µM [rising, full curve] |
| O=C(CCN1CCCCC1)Nc1cccc(Br)c1 | 0.794% | 0.103 µM [rising, full curve, poor fit] | – |
| CCN(CC)S(=O)(=O)c1cc(OC)ccc1N=Nc1ccc(O)c2ncccc12 | 8.97% | 29.1 µM [rising, single point] | – |
| CCCCc1ccc(NC(=O)CN2C(=O)C3CCCCC3C2=O)cc1 (stereo not drawn) | -28.8% | 6.51 µM [falling, single point] | – |
| COC(=O)c1ccc(NCC(=O)c2ccccc2)cc1 | -29.5% | 0.731 µM [falling, full curve, poor fit] | 0.0291 µM [falling, full curve, poor fit] |
| Cc1ccc(S(=O)(=O)N2CCOCC2)cc1NC(=O)CN1CCN(c2ccc(O)cc2)CC1 | -17.4% | – | – |
| CC(C)(C)C(=O)NCCCNc1ccc([N+](=O)[O-])cc1 | -44% | – | – |
| COC(CNC(=O)CNC(=S)N(Cc1ccccc1)Cc1cccnc1)OC | 30.1% | 6.51 µM [rising, single point] | 0.326 µM [rising, full curve, poor fit] |
| Cc1c(-c2ccccc2)nc(-c2ccccc2)[nH]c1=O | -11.7% | 29.1 µM [falling, single point] | – |
| COc1cccc(CNCC(O)(c2ccc(Cl)cc2)c2ccc(Cl)cc2)c1 | -53.6% | 6.51 µM [rising, partial curve, poor fit] | 29.1 µM [falling, single point] |
| COc1ccc(C(=O)c2sc(Nc3cccc(OC)c3)c(C(=O)Nc3cccc(C)c3C)c2N)cc1 | -53.3% | – | 29.1 µM [falling, single point] |
| COc1ccc(C(=O)/C=C/c2ccc(OC)c(COc3ccccc3F)c2)cc1 | -12.1% | 29.1 µM [falling, single point] | – |
| COC(=O)NNC(=O)c1ccc(Cl)cc1Cl | 52.8% | 29.1 µM [rising, single point] | 29.1 µM [rising, single point] |
| Cc1ccc(CSc2nnnn2C)cc1 | -32.2% | 6.51 µM [falling, single point] | 6.51 µM [falling, full curve, poor fit] |
